# Measurements taken from PMC7480108.
# B1: endogenous FGD1 (faciogenital dysplasia protein 1) (protein, UniProt P98174 1-961)
# chain: MHGHRAPGGAGPSEPEHPATNPPGAAPPACADSDPGASEPGLLARRGSGSALGGPLDPQFVGPSDTSLGAAPGHRVLPCGPSPQHHRALRFSYHLEGSQPRPGLHQGNRILVKSLSLDPGQSLEPHPEGPQRLRSDPGPPTETPSQRPSPLKRAPGPKPQVPPKPSYLQMPRMPPPLEPIPPPPSRPLPADPRVAKGLAPRAEASPSSAAVSSLIEKFEREPVIVASDRPVPGPSPGPPEPVMLPQPTSQPPVPQLPEGEASRCLFLLAPGPRDGEKVPNRDSGIDSISSPSNSEETCFVSDDGPPSHSLCPGPPALASVPVALADPHRPGSQEVDSDLEEEDDEEEEEEKDREIPVPLMERQESVELTVQQKVFHIANELLQTEKAYVSRLHLLDQVFCARLLEEARNRSSFPADVVHGIFSNICSIYCFHQQFLLPELEKRMEEWDRYPRIGDILQKLAPFLKMYGEYVKNFDRAVELVNTWTERSTQFKVIIHEVQKEEACGNLTLQHHMLEPVQRIPRYELLLKDYLLKLPHGSPDSKDAQKSLELIATAAEHSNAAIRKMERMHKLLKVYELLGGEEDIVSPTKELIKEGHILKLSAKNGTTQDRYLILFNDRLLYCVPRLRLLGQKFSVRARIDVDGMELKESSNLNLPRTFLVSGKQRSLELQARTEEEKKDWVQAINSTLLKHEQTLETFKLLNSTNREDEDTPPNSPNVDLGKRAPTPIREKEVTMCMRCQEPFNSITKRRHHCKACGHVVCGKCSEFRARLVYDNNRSNRVCTDCYVALHGVPGSSPACSQHTPQRRRSILEKQASVAAENSVICSFLHYMEKGGKGWHKAWFVVPENEPLVLYIYGAPQDVKAQRSLPLIGFEVGPPEAGERPDRRHVFKITQSHLSWYFSPETEELQRRWMAVLGRAGRGDTFCPGPTLSEDREMEEAPVAALGATAEPPESPQTRDKT
# Columns and labels:
# TKS5^GFP (human) = test: co-IP; GFP-Trap (anti-GFP nanobody beads) from NP-40 lysates of MDA-MB-231 cells expressing GFP-tagged constructs, 1 h 4°C; immunoblotting of bound proteins
# TKS5^GFPW861A (human) = test: as above
binder,measurement,setting,value
B1,binding,TKS5^GFP (human),binds
same,binding,TKS5^GFPW861A (human),binds

# No constants are given. Whether binding was seen depends on the method and setting. In cells and extracts the contact can be indirect. Binding calls can cover weak binding; strength is not graded here.
